Data from patent publication US20060078619A1, “Method for the preparatin of paclitaxel solid dispersion by using the supercritical fluid process and paclitaxel solid dispersion prepared thereby” (HANMI PHARM CO., LTD., priority 2002, published 2006).

Assay: Measurement of saturation solubility of the paclitaxel solid dispersion
Assay type: physicochemical
Details: paclitaxel dissolved in 1 ml distilled water, room temperature, vortex 5 hrs, left about 24 hr, 0.45 μm filtrate, HPLC

SMILES: CC(=O)O[C@H]1C(=O)[C@@]2(C)[C@H]([C@H](OC(=O)c3ccccc3)[C@]3(O)C[C@H](OC(=O)[C@H](O)[C@@H](NC(=O)c4ccccc4)c4ccccc4)C(C)=C1C3(C)C)[C@]1(OC(C)=O)CO[C@@H]1C[C@@H]2O [Control, Paclitaxel]
- Degree of saturated solubility: 0.57 ppm
